Results are given in words; binding and its absence hold for the method and conditions named. Some results given as binding are weak or reduced against the parent protein; the word gives no strength.
Assays:
1lp1b-003 [1] = test: SPR, Fab immobilized on CM5 chip
1lp1b-003 [2] = test: SPR (Example 3)

B1: motavizumab Fab (Fab, V domains shown)
VH: QVTLRESGPALVKPTQTLTLTCTFSGFSLSTAGMSVGWIRQPPGKALEWLADIWWDDKKHYNPSLKDRLTISKDTSKNQVVLKVTNMDPADTATYYCARDMIFNFYFDVWGQGTTVTVSS
VL: DIQMTQSPSTLSASVGDRVTITCSASSRVGYMHWYQQKPGKAPKLLIYDTSKLASGVPSRFSGSGSGTEFTLTISSLQPDDFATYYCFQGSGYPFTFGGGTKVEIK
binding (1lp1b-003 [1]): binds
binding (1lp1b-003 [2]): binds

Source: patent US20120315270A1
